Measured values from article PMC10060384.
No constants are given. Whether binding was seen depends on the method and setting. In cells and extracts the contact can be indirect. Some binding calls cover weakened binding; strength is not graded here.

The chains behind the UniProt entries cited, without tags or fusion partners. Residues count along the entry.
UniProt Q9QUK6, residues 26-835: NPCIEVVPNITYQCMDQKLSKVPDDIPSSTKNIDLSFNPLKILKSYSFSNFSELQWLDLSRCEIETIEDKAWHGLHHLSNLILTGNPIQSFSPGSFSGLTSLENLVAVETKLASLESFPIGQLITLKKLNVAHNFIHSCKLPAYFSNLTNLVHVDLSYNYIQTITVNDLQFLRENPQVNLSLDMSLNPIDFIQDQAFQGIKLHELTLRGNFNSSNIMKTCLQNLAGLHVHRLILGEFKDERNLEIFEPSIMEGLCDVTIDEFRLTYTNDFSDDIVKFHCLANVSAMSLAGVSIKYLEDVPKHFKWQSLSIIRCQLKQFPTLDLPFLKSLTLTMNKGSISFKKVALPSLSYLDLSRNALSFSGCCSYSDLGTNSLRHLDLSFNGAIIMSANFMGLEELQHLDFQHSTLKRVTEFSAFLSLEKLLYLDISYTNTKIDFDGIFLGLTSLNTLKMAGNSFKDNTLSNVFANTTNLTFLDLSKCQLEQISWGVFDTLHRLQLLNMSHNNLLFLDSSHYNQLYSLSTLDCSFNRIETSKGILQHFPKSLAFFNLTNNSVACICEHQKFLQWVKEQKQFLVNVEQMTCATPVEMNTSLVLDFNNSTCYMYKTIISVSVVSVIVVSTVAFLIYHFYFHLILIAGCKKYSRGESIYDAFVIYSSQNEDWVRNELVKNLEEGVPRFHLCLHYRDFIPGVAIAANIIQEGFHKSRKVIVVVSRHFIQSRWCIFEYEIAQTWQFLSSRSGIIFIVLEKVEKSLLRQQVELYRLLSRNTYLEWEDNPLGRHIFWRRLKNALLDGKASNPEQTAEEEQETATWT

Target: Toll-like receptor 4 (mouse (endogenous in BMDM)) (UniProt Q9QUK6)
Test: co-IP; only the binder purified

**Q.** How did the binding turn out when “recombinant influenza virus matrix 1 (M1) protein (from UniProt P03485 1-252)” was run?
**A.** binds
